Assay results as given in PubChem BioAssay AID330 (DTP/NCI, 2004).
The list is a part of this screen's results and no random one: it is rich in T/C values a quarter to a half above the control, in often repeated tests (any T/C) and in doses without a T/C. Further doses and runs are listed elsewhere. T/C: endpoint of the treated group in % of that of the vehicle group. Some doses have a count of surviving animals in place of a T/C: the source holds a T/C of zero for them, seemingly a mark for toxic or unscored doses. Some survivor counts are full or nearly so, which does not show that the dose was tolerated: the source hardly ever lists a survival T/C far under the control, and the zero likely stands for such cases as well. Survivors were counted at the toxicity check, usually on the fifth day, unless a day is given; later deaths do not show. Schedule codes are those of the source, taken here to give the interval after Q, in days (D) or hours (H), and the number of doses after X. Marks such as (2×) say how often a value occurs here. Some doses were run more than once; the values are given in rising order. Where survival is the endpoint, the PubChem record calls one and a half times the control and up active, and a quarter to a half above the control has no call in these data; cut-offs in other NCI protocols can differ. Some T/C values carry the count of animals alive at the toxicity check (mostly the fifth day); where none is given, no animal had died by that day.

System: P388 leukemia ip, CD2F1 mice, survival T/C
Assay: NCI In Vivo Anticancer Drug Screen. Data for tumor model P388 Leukemia (intraperitoneal) in CD2F1 (CDF1) mice
Settings: T/C endpoint: median survival time, higher T/C = longer survival
[1] = dose: 400.0 mg/kg/injection, schedule: Q04DX003 (ip), vehicle: saline with Tween-80
[2] = dose: 200.0 mg/kg/injection, schedule: Q01DX009 (ip), vehicle: saline
[3] = dose: 100.0 mg/kg/injection, schedule: Q01DX005 (ip), vehicle: saline with Tween-80
[4] = dose: 200.0 mg/kg/injection, schedule: Q01DX005 (ip), vehicle: saline with Tween-80
[5] = dose: 200.0 mg/kg/injection, schedule: Q01DX009 (ip), vehicle: Klucel (hydroxypropylcellulose) (HPC)
[6] = dose: 3.12 mg/kg/injection, schedule: Q01DX001 (ip), vehicle: Klucel (hydroxypropylcellulose) (HPC)
[7] = dose: 100.0 mg/kg/injection, schedule: Q01DX001 (ip), vehicle: saline with Tween-80
[8] = dose: 200.0 mg/kg/injection, schedule: Q01DX001 (ip), vehicle: saline with Tween-80

In the case of CC(=O)Nc1ncn[nH]1, the survivor count [1] is reported as 3 of 6.

With C/C(=N\O)c1cc(/C(C)=N/O)cc(/C(C)=N/O)c1 the survivor count [2] was 4 of 6.

For O=C1C2CC=CCC2C(=O)N1CC[P+](c1ccccc1)(c1ccccc1)c1ccccc1 (stereo not given), the T/C (dose: 6.25 mg/kg/injection, schedule: Q01DX009 (ip), vehicle: water) was 125 % of control, the survivor count (dose: 25.0 mg/kg/injection, schedule: Q01DX009 (ip), vehicle: water) was 6 of 6 and the survivor count (dose: 50.0 mg/kg/injection, schedule: Q01DX009 (ip), vehicle: water) was 5 of 6.

With CN(C)C(=S)SCNC(=S)NCSC(=S)N(C)C the T/C (dose: 50.0 mg/kg/injection, schedule: Q01DX009 (ip), vehicle: saline with Tween-80) was 126 % of control (2×).

With CN(C)CCOC(=O)Nc1ccccc1C(F)(F)F the survivor count (dose: 240.0 mg/kg/injection, schedule: Q01DX005 (ip), vehicle: saline with Tween-80) was 0 of 6.

COc1cc2c(c(OC)c1O)-c1ccc(OC)c(=O)cc1[C@@H](NC(C)=O)CC2 was tested, and the T/C (dose: 2.5 mg/kg/injection, schedule: Q01DX009 (ip), vehicle: Klucel (hydroxypropylcellulose) (HPC)) was 146 % of control, the T/C (dose: 5.0 mg/kg/injection, schedule: Q01DX009 (ip), vehicle: Klucel (hydroxypropylcellulose) (HPC)) was 138 and 141 % of control and the survivor count (dose: 40.0 mg/kg/injection, schedule: Q01DX009 (ip), vehicle: Klucel (hydroxypropylcellulose) (HPC)) was 5 of 6. The survivor count (dose: 80.0 mg/kg/injection, schedule: Q01DX009 (ip), vehicle: Klucel (hydroxypropylcellulose) (HPC)) was 2 of 6.

For Cc1ccc2c(c1)C(O)C(N)CCO2 (stereo not given), the survivor count (dose: 400.0 mg/kg/injection, schedule: Q04DX003 (ip), vehicle: saline) was 0 of 6.

With O=C(/C=C1\Nc2ccccc2N(C(=O)c2ccccc2)C1c1ccccc1)c1ccccc1 (stereo not given) the survivor count (dose: 60.0 mg/kg/injection, schedule: Q01DX005 (ip), vehicle: Klucel (hydroxypropylcellulose) (HPC)) was 6 of 6 (2×), the survivor count (dose: 120.0 mg/kg/injection, schedule: Q01DX005 (ip), vehicle: Klucel (hydroxypropylcellulose) (HPC)) was 6 of 6 and the survivor count (dose: 240.0 mg/kg/injection, schedule: Q01DX005 (ip), vehicle: Klucel (hydroxypropylcellulose) (HPC)) was 6 of 6.

With CCCCCCCCCCCCC1=NCC[N+]1(CCO)CC(O)COc1cc(Cl)c(Cl)cc1Cl (stereo not given) the survivor count [2] was 1 of 6.

In the case of ClCC(Br)CBr (stereo not given), the T/C (dose: 75.0 mg/kg/injection, schedule: Q01DX009 (ip), vehicle: saline sonified) is reported as 125 % of control, the T/C (dose: 75.0 mg/kg/injection, schedule: Q01DX009 (ip), vehicle: saline with Tween-80) is reported as 131 % of control and the T/C (dose: 112.0 mg/kg/injection, schedule: Q01DX009 (ip), vehicle: saline sonified) is reported as 140 % of control [5 of 6 alive].

In the case of Cc1ccc(S(=O)(=O)N/N=C/c2ccc(Cl)cc2)cc1, the T/C [3] is reported as 107, 110, 112 [4 of 5 alive], 115 % of control, the survivor count [4] is reported as 5 of 5 and the survivor count (dose: 400.0 mg/kg/injection, schedule: Q01DX005 (ip), vehicle: saline with Tween-80) is reported as 3 of 5 and 4 of 5.

In the case of CCN(CC)Cc1c(C)[nH]c2ccc(NC(C)=O)cc2c1=O, the survivor count (dose: 200.0 mg/kg/injection, schedule: Q01DX009 (ip), vehicle: saline with Tween-80) is reported as 3 of 6.

CC1(CO)CSC(Nc2ccc(Cl)c(Cl)c2)=N1 (stereo not given) was tested, and the survivor count (dose: 12.5 mg/kg/injection, schedule: Q01DX009 (ip), vehicle: saline with Tween-80) was 6 of 6.

For CN1c2c(nc(N)[nH]c2=O)NCC1CCNc1ccc(C(=O)NC(CCC(=O)O)C(=O)O)cc1 (stereo not given), the T/C [5] was 136 % of control, the T/C [2] was 127 % of control [5 of 6 alive] and the T/C (dose: 400.0 mg/kg/injection, schedule: Q01DX009 (ip), vehicle: Klucel (hydroxypropylcellulose) (HPC)) was 149 % of control. For the same compound, the T/C (dose: 400.0 mg/kg/injection, schedule: Q01DX009 (ip), vehicle: saline) was 127 % of control, the T/C (dose: 1200.0 mg/kg/injection, schedule: Q01DX005 (ip), vehicle: saline) was 133 % of control [5 of 6 alive] and the T/C (dose: 1200.0 mg/kg/injection, schedule: Q01DX005 (iv), vehicle: saline) was 137 % of control. The survivor count (dose: 1200.0 mg/kg/injection, schedule: Q01DX009 (ip), vehicle: Klucel (hydroxypropylcellulose) (HPC)) was 6 of 6, the T/C (dose: 1200.0 mg/kg/injection, schedule: Q01DX009 (ip), vehicle: saline) was 129 % of control and the T/C (dose: 1200.0 mg/kg/injection, schedule: Q01DX009 (ip), vehicle: sodium bicarbonate) was 146 % of control.

For CCCCCCC1(C(=O)OCCN(CC)CC)CCCCC1, the survivor count [4] was 1 of 6.

For CCCCCCCCCCN1CCOCCOCCN(CCCCCCCCCC)CCOCCOCC1, the survivor count (dose: 50.0 mg/kg/injection, schedule: Q01DX005 (ip), vehicle: saline with Tween-80) was 5 of 5, the survivor count [3] was 1 of 5 and the survivor count [4] was 0 of 5.

For NC(Cc1cc([N+](=O)[O-])ccc1CN(CCCl)CCCl)C(=O)O (stereo not given), the T/C (dose: 0.5 mg/kg/injection, schedule: Q01DX009 (ip), vehicle: Klucel (hydroxypropylcellulose) (HPC)) was 137 % of control, the T/C (dose: 0.94 mg/kg/injection, schedule: Q04DX003 (ip), vehicle: Klucel (hydroxypropylcellulose) (HPC)) was 137 % of control and the T/C (dose: 1.0 mg/kg/injection, schedule: Q01DX009 (ip), vehicle: Klucel (hydroxypropylcellulose) (HPC)) was 128 % of control. For the same compound, the T/C (dose: 1.56 mg/kg/injection, schedule: Q01DX001 (ip), vehicle: Klucel (hydroxypropylcellulose) (HPC)) was 127 % of control, the T/C [6] was 130 % of control and the survivor count [6] was 6 of 6. The T/C (dose: 6.25 mg/kg/injection, schedule: Q01DX001 (ip), vehicle: Klucel (hydroxypropylcellulose) (HPC)) was 147 % of control.

Cc1ccc2[nH]c(=O)oc2c1 was tested, and the survivor count (dose: 100.0 mg/kg/injection, schedule: Q04DX002 (ip), vehicle: saline with Tween-80) was 1 of 6 and 2 of 6, the survivor count (dose: 200.0 mg/kg/injection, schedule: Q04DX002 (ip), vehicle: saline with Tween-80) was 0 of 6 and the survivor count (dose: 400.0 mg/kg/injection, schedule: Q04DX002 (ip), vehicle: saline with Tween-80) was 0 of 6.

C/C(=C\c1ccc(OCC(=O)O)c(Cl)c1Cl)[N+](=O)[O-] was tested, and the T/C (dose: 50.0 mg/kg/injection, schedule: Q01DX001 (ip), vehicle: saline with Tween-80) was 92 [4 of 6 alive], 93, 98 [5 of 6 alive], 106 % of control, the T/C [7] was 127 % of control and the survivor count [7] was 0 of 6 and 2 of 6. For the same compound, the T/C [8] was 131 % of control [5 of 6 alive], the survivor count [8] was 0 of 6 and the survivor count (dose: 400.0 mg/kg/injection, schedule: Q01DX001 (ip), vehicle: saline with Tween-80) was 0 of 6 (2×).

In the case of COc1ccc(C(CC(=O)O)CC(=O)c2ccc(N(CCCl)CCCl)cc2)cc1 (stereo not given), the survivor count (dose: 400.0 mg/kg/injection, schedule: Q01DX001 (ip), vehicle: suspension in saline) is reported as 5 of 6.

For O=[N+]([O-])c1ccc(/C=C/Sc2ccccc2)o1, the survivor count (dose: 200.0 mg/kg/injection, schedule: Q01DX009 (ip), vehicle: suspension in saline) was 6 of 6.

For NC(N)=NC(N)=Nc1ccc2c(Cl)c(Cl)ccc2c1, the T/C (dose: 50.0 mg/kg/injection, schedule: Q04DX003 (ip), vehicle: saline with Tween-80) was 125 % of control, the survivor count (dose: 75.0 mg/kg/injection, schedule: Q04DX003 (ip), vehicle: saline with Tween-80) was 3 of 6 and the survivor count [3] was 0 of 6. For the same compound, the survivor count (dose: 100.0 mg/kg/injection, schedule: Q04DX003 (ip), vehicle: saline with Tween-80) was 0 of 6 and the survivor count [4] was 0 of 6.

c1cnc2nsnc2c1 was tested, and the survivor count (dose: 100.0 mg/kg/injection, schedule: Q01DX009 (ip), vehicle: Klucel (hydroxypropylcellulose) (HPC)) was 5 of 6 and the survivor count [5] was 0 of 6.

CCCCCCCCCCC(O)CCCCCCCCCC was tested, and the survivor count [1] was 6 of 6.

For CCOc1ccc(N2C(N)=NC(N)=NC2(C)C)cc1, the survivor count [3] was 0 of 5 and the survivor count [4] was 0 of 5.

With C=CCC(C(=O)OCCN(CC)CC)(c1ccccc1)c1ccccc1 the survivor count (dose: 0.75 mg/kg/injection, schedule: Q01DX009 (ip), vehicle: saline) was 6 of 6, the survivor count (dose: 1.5 mg/kg/injection, schedule: Q01DX009 (ip), vehicle: saline) was 6 of 6 and the survivor count (dose: 3.0 mg/kg/injection, schedule: Q01DX009 (ip), vehicle: saline) was 6 of 6. For the same compound, the survivor count (dose: 6.0 mg/kg/injection, schedule: Q01DX009 (ip), vehicle: saline) was 6 of 6 and the survivor count (dose: 12.0 mg/kg/injection, schedule: Q01DX009 (ip), vehicle: saline) was 6 of 6.
